Laboratory results taken from the supplement of paper PMC4635364.
Where a name gives a salt, the structure may show the parent alone. The list shows a part of the results. This data set is noisy: repeats of one test often differ as much as different tests do.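 Cells: ReNCell VM human fetal ventral-midbrain neural progenitors, differentiated mitogen-free. Blinded raters compared doublecortin-stained (early neurons) or tyrosine hydroxylase-stained (dopaminergic neurons) images with untreated wells, where 0 means no change. After repeats and both raters were averaged, compounds scoring 2 or above became hits for retesting.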

Assays:
ReNCell VM [1] = assay: neuronal differentiation score (DCX+ cell fraction vs untreated, manual image score) (score (-3 to 3)); higher = more neuronal differentiation; details: 2 uM, 2 weeks
ReNCell VM [2] = assay: dopaminergic neuron differentiation score (TH+ cell fraction vs untreated, manual image score) (score (0 to 3)); higher = more TH+ dopaminergic neuron differentiation; details: 2 uM, 4 weeks, BDNF 10 ng/ml + GDNF 10 ng/ml

Structure (SMILES): Cc1cc(CC(=O)O)n(C)c1C(=O)c1ccc(Cl)cc1 [Zomepirac sodium salt]
- neuronal differentiation score (ReNCell VM [1]; library: Prestwick): inactive: 0
- dopaminergic neuron differentiation score (ReNCell VM [2]; library: Prestwick): inactive: 0

Structure (SMILES): CCC(=O)NC[C@H](Cc1ccc(OCCc2nc(-c3ccccc3)oc2C)cc1)N/C(C)=C\C(=O)c1ccc(C(F)(F)F)cc1
- neuronal differentiation score (ReNCell VM [1]; library: Tocriscreen): inactive: 0
- dopaminergic neuron differentiation score (ReNCell VM [2]; library: Tocriscreen): inactive: 0

Structure (SMILES): Cc1noc(NS(=O)(=O)c2cccc3c(N(C)C)cccc23)c1C
- neuronal differentiation score (ReNCell VM [1]; library: Tocriscreen): inactive: 0
- dopaminergic neuron differentiation score (ReNCell VM [2]; library: Tocriscreen): inactive: 0

Structure (SMILES): COC1=CC(=O)C[C@@H](C)[C@]12Oc1c(Cl)c(OC)cc(OC)c1C2=O
- neuronal differentiation score (ReNCell VM [1]; library: Spectrum): inactive: 0
- dopaminergic neuron differentiation score (ReNCell VM [2]; library: Spectrum): inactive: 0

Structure (SMILES): CCCCCCCC/C=C\CCCCCCCC(=O)O.NCCO
- neuronal differentiation score (ReNCell VM [1]; library: Spectrum): inactive: 0
- dopaminergic neuron differentiation score (ReNCell VM [2]; library: Spectrum): inactive: 0

Structure (SMILES): O=c1[nH]nc(Sc2ncc([N+](=O)[O-])s2)n1-c1ccc2c(c1)OCCO2
- neuronal differentiation score (ReNCell VM [1]; library: Tocriscreen): inactive: 0
- dopaminergic neuron differentiation score (ReNCell VM [2]; library: Tocriscreen): inactive: 0

Structure (SMILES): CCNC(=O)/C=C/c1cccc(Br)c1
- neuronal differentiation score (ReNCell VM [1]; library: Spectrum): inactive: 0
- dopaminergic neuron differentiation score (ReNCell VM [2]; library: Spectrum): inactive: 0

Structure (SMILES): CC[C@H]1OC(=O)[C@H](C)[C@@H](O[C@H]2C[C@@](C)(OC)[C@@H](O)[C@H](C)O2)[C@H](C)[C@@H](O[C@@H]2O[C@H](C)C[C@H](N(C)C)[C@H]2O)[C@](C)(OC)C[C@@H](C)C(=O)[C@H](C)[C@@H](O)[C@]1(C)O
- neuronal differentiation score (ReNCell VM [1]; library: Spectrum): inactive: 0
- dopaminergic neuron differentiation score (ReNCell VM [2]; library: Spectrum): inactive: 0

Structure (SMILES): CN1CC(=O)NC1=N
- neuronal differentiation score (ReNCell VM [1]; library: Spectrum): inactive: 0
- dopaminergic neuron differentiation score (ReNCell VM [2]; library: Spectrum): inactive: 0

Structure (SMILES): CN(CCCCCCCCCCN(C)C(=O)Oc1cccc([N+](C)(C)C)c1)C(=O)Oc1cccc([N+](C)(C)C)c1 [Demecarium bromide]
- neuronal differentiation score (ReNCell VM [1]; library: Prestwick): inactive: 0
- dopaminergic neuron differentiation score (ReNCell VM [2]; library: Prestwick): inactive: 0

Structure (SMILES): NC[C@@H]1O[C@@H](O[C@H]2[C@H](O)[C@@H](O[C@H]3O[C@H](CO)[C@@H](O)[C@H](N)[C@H]3O)[C@H](N)C[C@@H]2N)[C@@H](O)[C@H](O)[C@H]1O [Kanamycin A sulfate]
- neuronal differentiation score (ReNCell VM [1]; library: Prestwick): inactive: 0
- dopaminergic neuron differentiation score (ReNCell VM [2]; library: Prestwick): inactive: 0

Structure (SMILES): Cc1nn(-c2ccccc2)c(C)c1C=NN1CCN(Cc2ccccc2)CC1
- neuronal differentiation score (ReNCell VM [1]; library: Tocriscreen): inactive: 0
- dopaminergic neuron differentiation score (ReNCell VM [2]; library: Tocriscreen): inactive: 0

Structure (SMILES): CN[C@@H]1[C@@H](O)[C@@H](O[C@@H]2[C@@H](O)[C@H](O[C@H]3OC(CN)=CC[C@H]3N)[C@@H](N)C[C@H]2N)OC[C@]1(C)O
- neuronal differentiation score (ReNCell VM [1]; library: Spectrum): inactive: 0
- dopaminergic neuron differentiation score (ReNCell VM [2]; library: Spectrum): inactive: 0

Structure (SMILES): Cn1cc(C(F)(F)F)nc1-c1ccc(OCC(O)CNCCOc2ccc(O)c(C(N)=O)c2)cc1 (stereo not given)
- neuronal differentiation score (ReNCell VM [1]; library: LOPAC): inactive: 0
- dopaminergic neuron differentiation score (ReNCell VM [2]; library: LOPAC): inactive: 0

Structure (SMILES): Cc1ncc([N+](=O)[O-])n1CCO [Metronidazole]
- neuronal differentiation score (ReNCell VM [1]; library: Prestwick): inactive: 0
- dopaminergic neuron differentiation score (ReNCell VM [2]; library: Prestwick): inactive: 0

Structure (SMILES): c1ccc2c(c1)CC(N1CCN(c3cccc4c3OCCO4)CC1)C2
- neuronal differentiation score (ReNCell VM [1]; library: LOPAC): inactive: 0
- dopaminergic neuron differentiation score (ReNCell VM [2]; library: LOPAC): inactive: 0

Structure (SMILES): OC[C@H]1O[C@@H](Oc2cc(O)cc(/C=C/c3ccc(O)cc3)c2)[C@H](O)[C@@H](O)[C@@H]1O
- neuronal differentiation score (ReNCell VM [1]; library: Spectrum): inactive: 0
- dopaminergic neuron differentiation score (ReNCell VM [2]; library: Spectrum): inactive: 0

Structure (SMILES): Clc1ccc2nsnc2c1NC1=NCCN1 [Tizanidine HCl]
- neuronal differentiation score (ReNCell VM [1]; library: Prestwick): inactive: 0
- dopaminergic neuron differentiation score (ReNCell VM [2]; library: Prestwick): inactive: 0

Structure (SMILES): CC(C)C[C@@H](C(=O)N[C@H](C(=O)OC1CCCC1)c1ccccc1)[C@H](O)C(=O)NO
- neuronal differentiation score (ReNCell VM [1]; library: Tocriscreen): inactive: 0
- dopaminergic neuron differentiation score (ReNCell VM [2]; library: Tocriscreen): inactive: 0

Structure (SMILES): Cc1nc2ccc(NC(=O)Nc3ccnc4cccnc34)cc2o1
- neuronal differentiation score (ReNCell VM [1]; library: Tocriscreen): inactive: 0
- dopaminergic neuron differentiation score (ReNCell VM [2]; library: Tocriscreen): inactive: 0

Structure (SMILES): C[N+](C)(C)CCO.[Cl-]
- neuronal differentiation score (ReNCell VM [1]; library: Spectrum): inactive: 0
- dopaminergic neuron differentiation score (ReNCell VM [2]; library: Spectrum): inactive: 0

Structure (SMILES): Cc1c(OCC(F)(F)F)ccnc1C[S@@+]([O-])c1nc2ccccc2[nH]1
- neuronal differentiation score (ReNCell VM [1]; library: Spectrum): inactive: 0
- dopaminergic neuron differentiation score (ReNCell VM [2]; library: Spectrum): inactive: 0

Structure (SMILES): CCn1cc(C(=O)O)c(=O)c2cnc(N3CCCC3)nc21
- neuronal differentiation score (ReNCell VM [1]; library: Spectrum): inactive: 0
- dopaminergic neuron differentiation score (ReNCell VM [2]; library: Spectrum): inactive: 0

Structure (SMILES): C/C=C/c1ccc(OC)cc1
- neuronal differentiation score (ReNCell VM [1]; library: Spectrum): inactive: 0
- dopaminergic neuron differentiation score (ReNCell VM [2]; library: Spectrum): inactive: 1

Structure (SMILES): CN1C(C(=O)Nc2ccccn2)=C(O)c2sc(Cl)cc2S1(=O)=O
- neuronal differentiation score (ReNCell VM [1]; library: Spectrum): inactive: 0
- dopaminergic neuron differentiation score (ReNCell VM [2]; library: Spectrum): inactive: 0

Structure (SMILES): CC(=O)OCC(=O)[C@@]1(OC(C)=O)[C@@H](C)C[C@H]2[C@@H]3C[C@H](F)C4=CC(=O)C=C[C@]4(C)[C@@]3(F)[C@@H](O)C[C@@]21C
- neuronal differentiation score (ReNCell VM [1]; library: Spectrum): inactive: 0
- dopaminergic neuron differentiation score (ReNCell VM [2]; library: Spectrum): inactive: 0

Structure (SMILES): COc1ccc(C(=O)O)c(O)c1OC
- neuronal differentiation score (ReNCell VM [1]; library: Spectrum): inactive: 0
- dopaminergic neuron differentiation score (ReNCell VM [2]; library: Spectrum): inactive: 0

Structure (SMILES): Cc1cccc(C2CN(C)CCc3c2cc(O)c(O)c3Cl)c1 (stereo not given)
- neuronal differentiation score (ReNCell VM [1]; library: LOPAC): inactive: 0
- dopaminergic neuron differentiation score (ReNCell VM [2]; library: LOPAC): inactive: 0

Structure (SMILES): OC(CCN1CCCCC1)(c1ccccc1)c1ccccc1
- neuronal differentiation score (ReNCell VM [1]; library: Spectrum): inactive: 0
- dopaminergic neuron differentiation score (ReNCell VM [2]; library: Spectrum): inactive: 0

Structure (SMILES): CC(C)(C(=O)c1cccnc1)c1cccnc1 [Metyrapone]
- neuronal differentiation score (ReNCell VM [1]; library: Prestwick): inactive: 0
- dopaminergic neuron differentiation score (ReNCell VM [2]; library: Prestwick): inactive: 0

Structure (SMILES): Nc1ncn([C@@H]2O[C@H](CO)[C@@H](O)[C@H]2O)c(=O)n1 [5-azacytidine]
- neuronal differentiation score (ReNCell VM [1]; library: LOPAC): inactive: -3
- dopaminergic neuron differentiation score (ReNCell VM [2]; library: LOPAC): inactive: 0

Structure (SMILES): C[C@H](N)[C@H](O)c1cccc(O)c1 [Metaraminol bitartrate]
- neuronal differentiation score (ReNCell VM [1]; library: Prestwick): inactive: 0
- dopaminergic neuron differentiation score (ReNCell VM [2]; library: Prestwick): inactive: 0

Structure (SMILES): CC(O)Cn1cnc2c1c(=O)n(C)c(=O)n2C (stereo not given)
- neuronal differentiation score (ReNCell VM [1]; library: Spectrum): inactive: 0
- dopaminergic neuron differentiation score (ReNCell VM [2]; library: Spectrum): inactive: 0

Structure (SMILES): CC(C)(C)c1ccc(C(O)CCCN2CCC(C(O)(c3ccccc3)c3ccccc3)CC2)cc1 (stereo not given)
- neuronal differentiation score (ReNCell VM [1]; library: Spectrum): inactive: 0
- dopaminergic neuron differentiation score (ReNCell VM [2]; library: Spectrum): inactive: 0

Structure (SMILES): C[C@H](Cn1cnc2c(N)ncnc21)OCP(=O)(O)O
- neuronal differentiation score (ReNCell VM [1]; library: Spectrum): inactive: 0
- dopaminergic neuron differentiation score (ReNCell VM [2]; library: Spectrum): inactive: 0
